Some peptides are written in HELM: one residue between dots, names in brackets for other building blocks, links after the first $.
Assay: general procedure: Fmoc solid-phase peptide synthesis; Wang resin preloaded with the first amino acid unless stated otherwise (2-chlorotrityl chloride resin for homocysteine C); oxyma/DIC
Conditions: cyclisation step
With Tam-YFP[cQFAFC] the cyclisation yield was 31% of theory.

Same assay, conditions: cyclisation step, 220 nm
In the case of Tam-YFP[cQFAFC], the “final HPLC purity” value is reported as “over 95%”.

Same assay, conditions: whole synthesis
For Tam-YFP[c(CH2)QFAFX], the isolated mass was 1.8 mg.
“PEPTIDE1{[Tam].Y.F.P.[dC].Q.F.A.F.C}|CHEM1{[CH2]}$PEPTIDE1,CHEM1,5:R3-1:R1|PEPTIDE1,CHEM1,10:R3-1:R2$$$V2.0” showed an isolated mass of 1.9 mg.
YFP[c(CH2)QFAFC] showed an isolated mass of 1.2 mg.
Work on [c4,C7]-chemerin-9 yielded an isolated mass of 1.9 mg.
Tam-EG4-chemerin-9 gave an isolated mass of 4.8 mg.
In the case of [c4,C9]-chemerin-9, the isolated mass is reported as 1.9 mg.

Same assay, conditions: whole synthesis, 220 nm, scale of the general procedure 15 μmol
In the case of Tam-EG(4)-YFP[xQFAFC], the “final HPLC purity” value is reported as “over 95%”.
In the case of Tam-YFP[c(CH2)QFAFX], the “final HPLC purity” value is reported as “over 95%”.
With “PEPTIDE1{[Tam].Y.F.P.[dC].Q.F.A.F.C}|CHEM1{[CH2]}$PEPTIDE1,CHEM1,5:R3-1:R1|PEPTIDE1,CHEM1,10:R3-1:R2$$$V2.0” the “final HPLC purity” value was “over 95%”.
For YFP[c(CH2)QFAFC], the “final HPLC purity” value was “over 95%”.
In the case of GFLGYFP[xQFAFC], the “final HPLC purity” value is reported as “over 95%”.
For Tam-EG(4)-YFP[xQFAWC], the “final HPLC purity” value was “over 95%”.

Same assay, conditions: whole synthesis, scale of the general procedure 15 μmol
In the case of Tam-YFP[c(CH2)QFAFX], the isolated yield is reported as 10.2% of theory.
With “PEPTIDE1{[Tam].Y.F.P.[dC].Q.F.A.F.C}|CHEM1{[CH2]}$PEPTIDE1,CHEM1,5:R3-1:R1|PEPTIDE1,CHEM1,10:R3-1:R2$$$V2.0” the isolated yield was 11.1% of theory.
With YFP[c(CH2)QFAFC] the isolated yield was 5% of theory.
With [c4,C7]-chemerin-9 the isolated yield was 11.1% of theory.
In the case of Tam-EG4-chemerin-9, the isolated yield is reported as 18.6% of theory.
For [c4,C9]-chemerin-9, the isolated yield was 11.1% of theory.

— US20230303647A1 (priority 2020, published 2023)
